These are yes or no findings as the source states them, for the method shown. Binding seen in cells or lysates may run through a third protein. Some results given as binding are weak or reduced against the parent protein; the word gives no strength.
Key:
[1] = biological target: NLRP3 (mouse (endogenous in mouse brain and BV2 cells)) (UniProt Q8R4B8); experiment: co-IP; mouse brain lysates, IP with anti-NLRP3 or anti-LAMP2A antibody, agarose beads, washed with RIPA buffer, immunoblot
[2] = biological target: NLRP3 (mouse (endogenous in mouse brain and BV2 cells)) (UniProt Q8R4B8); experiment: co-IP; BV2 cell lysates, IP with anti-NLRP3, with or without the p38 inhibitor SB203580, immunoblot

Protein sequences, listed by entry. Tags and fused reporters are not part of them.
UniProt Q8R4B8: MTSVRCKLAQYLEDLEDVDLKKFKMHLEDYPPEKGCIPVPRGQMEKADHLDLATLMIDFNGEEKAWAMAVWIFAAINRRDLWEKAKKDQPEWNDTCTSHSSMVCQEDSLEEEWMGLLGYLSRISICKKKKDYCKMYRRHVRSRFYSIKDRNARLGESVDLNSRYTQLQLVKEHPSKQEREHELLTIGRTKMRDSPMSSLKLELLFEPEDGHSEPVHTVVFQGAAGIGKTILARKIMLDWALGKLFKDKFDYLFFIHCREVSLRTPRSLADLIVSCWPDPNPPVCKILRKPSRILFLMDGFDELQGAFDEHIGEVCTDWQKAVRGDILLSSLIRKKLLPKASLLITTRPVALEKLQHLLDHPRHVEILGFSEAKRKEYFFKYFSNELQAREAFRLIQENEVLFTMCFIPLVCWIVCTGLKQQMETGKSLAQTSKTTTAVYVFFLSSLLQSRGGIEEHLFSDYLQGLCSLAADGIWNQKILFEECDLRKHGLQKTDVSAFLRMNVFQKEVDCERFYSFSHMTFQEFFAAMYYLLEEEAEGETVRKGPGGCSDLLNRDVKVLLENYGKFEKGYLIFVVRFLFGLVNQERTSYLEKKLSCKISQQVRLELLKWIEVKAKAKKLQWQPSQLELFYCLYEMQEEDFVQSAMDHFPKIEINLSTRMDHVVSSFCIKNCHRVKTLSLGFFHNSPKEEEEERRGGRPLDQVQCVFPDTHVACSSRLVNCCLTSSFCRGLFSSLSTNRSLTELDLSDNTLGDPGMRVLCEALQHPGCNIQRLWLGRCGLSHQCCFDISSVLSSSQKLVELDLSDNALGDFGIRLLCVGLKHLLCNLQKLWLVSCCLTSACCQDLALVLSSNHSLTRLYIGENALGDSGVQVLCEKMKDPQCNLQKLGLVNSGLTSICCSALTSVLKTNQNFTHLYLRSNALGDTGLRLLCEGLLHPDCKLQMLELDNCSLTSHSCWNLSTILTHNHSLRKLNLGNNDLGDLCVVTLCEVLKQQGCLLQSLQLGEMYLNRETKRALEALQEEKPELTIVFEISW

- binding [1]: binds
- binding [2]: binds
B1: LAMP2A (receptor, UniProt P17047-1 26-415)
chain: LIVNLTDSKGTCLYAEWEMNFTITYETTNQTNKTITIAVPDKATHDGSSCGDDRNSAKIMIQFGFAVSWAVNFTKEASHYSIHDIVLSYNTSDSTVFPGAVAKGVHTVKNPENFKVPLDVIFKCNSVLTYNLTPVVQKYWGIHLQAFVQNGTVSKNEQVCEEDQTPTTVAPIIHTTAPSTTTTLTPTSTPTPTPTPTPTVGNYSIRNGNTTCLLATMGLQLNITEEKVPFIFNINPATTNFTGSCQPQSAQLRLNNSQIKYLDFIFAVKNEKRFYLKEVNVYMYLANGSAFNISNKNLSFWDAPLGSSYMCNKEQVLSVSRAFQINTFNLKVQPFNVTKGQYSTAQDCSADEDNFLVPIAVGAALGGVLILVLLAYFIGLKRHHTGYEQF
